Results are given in words; binding and its absence hold for the method and conditions named. Binding seen in cells or lysates may run through a third protein. A yes stands for co-enrichment or nearness to the bait. Other partners may have been found. For some assays here: No binding means not detected with the bait.
T1: Neuropilin-2 (NRP2) (mouse (endogenous in mLMECs)), O35375
T1 chain: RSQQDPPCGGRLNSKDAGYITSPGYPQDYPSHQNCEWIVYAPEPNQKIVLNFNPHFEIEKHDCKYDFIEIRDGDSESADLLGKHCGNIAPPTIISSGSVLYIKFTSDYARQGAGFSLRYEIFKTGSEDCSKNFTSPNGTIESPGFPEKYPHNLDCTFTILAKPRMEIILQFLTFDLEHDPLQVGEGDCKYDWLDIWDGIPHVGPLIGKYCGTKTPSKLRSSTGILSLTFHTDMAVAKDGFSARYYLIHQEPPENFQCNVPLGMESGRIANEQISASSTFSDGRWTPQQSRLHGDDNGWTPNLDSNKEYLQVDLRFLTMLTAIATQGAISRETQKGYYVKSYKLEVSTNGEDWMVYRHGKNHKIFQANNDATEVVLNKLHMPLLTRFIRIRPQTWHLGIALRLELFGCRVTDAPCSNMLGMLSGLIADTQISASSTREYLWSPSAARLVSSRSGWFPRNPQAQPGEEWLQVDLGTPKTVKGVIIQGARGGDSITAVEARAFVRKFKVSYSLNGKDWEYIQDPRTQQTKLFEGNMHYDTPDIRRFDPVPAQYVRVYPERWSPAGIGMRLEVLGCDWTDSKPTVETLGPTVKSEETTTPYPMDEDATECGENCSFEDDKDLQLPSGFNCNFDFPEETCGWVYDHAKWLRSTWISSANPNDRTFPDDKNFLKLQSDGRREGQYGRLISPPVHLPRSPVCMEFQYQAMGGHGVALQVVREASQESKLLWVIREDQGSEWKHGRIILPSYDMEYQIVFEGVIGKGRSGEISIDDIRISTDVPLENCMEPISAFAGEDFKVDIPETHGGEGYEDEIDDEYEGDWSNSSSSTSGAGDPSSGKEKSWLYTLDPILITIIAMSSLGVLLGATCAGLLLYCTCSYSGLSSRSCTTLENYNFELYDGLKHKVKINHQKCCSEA

Amino acid sequences for entries named in this document (tags omitted).
UniProt Q9CQ22: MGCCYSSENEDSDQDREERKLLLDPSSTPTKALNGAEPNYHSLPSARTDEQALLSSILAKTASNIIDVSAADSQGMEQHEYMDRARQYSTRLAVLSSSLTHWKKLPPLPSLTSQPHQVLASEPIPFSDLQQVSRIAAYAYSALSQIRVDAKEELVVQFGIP
UniProt P49817: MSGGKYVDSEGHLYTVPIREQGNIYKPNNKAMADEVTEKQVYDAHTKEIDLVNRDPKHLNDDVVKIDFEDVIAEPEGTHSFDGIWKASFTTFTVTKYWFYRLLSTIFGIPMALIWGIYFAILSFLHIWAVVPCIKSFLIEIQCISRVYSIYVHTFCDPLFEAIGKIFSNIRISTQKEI


Key:
[1] = molecular target: Neuropilin-2 (NRP2) (mouse (endogenous in mLMECs)) (UniProt O35375); test: affinity purification with mass spectrometry; NRP2 immunoprecipitates from two WT EC lines, control against NRP2 siRNA; label-free quantitative mass spectrometry, MaxQuant
[2] = molecular target: T1, Neuropilin-2 (NRP2) (mouse (endogenous …)); test: as above; conditions: remark: other sources report otherwise

Row | binding [1] | binding [2] | Molecule
1 | binds | – | Lamtor1 (from UniProt Q9CQ22 1-161)
2 | binds | – | caveolin-1 (from UniProt P49817 1-178)
3 | – | no binding | Neuropilin-1 (NRP1), P97333 22-923 (receptor) FRSDKCGGTIKIENPGYLTSPGYPHSYHPSEKCEWLIQAPEPYQRIMINFNPHFDLEDRDCKYDYVEVIDGENEGGRLWGKFCGKIAPSPVVSSGPFLFIKFVSDYETHGAGFSIRYEIFKRGPECSQNYTAPTGVIKSPGFPEKYPNSLECTYIIFAPKMSEIILEFESFDLEQDSNPPGGMFCRYDRLEIWDGFPEVGPHIGRYCGQKTPGRIRSSSGVLSMVFYTDSAIAKEGFSANYSVLQSSISEDFKCMEALGMESGEIHSDQITASSQYGTNWSVERSRLNYPENGWTPGEDSYKEWIQVDLGLLRFVTAVGTQGAISKETKKKYYVKTYRVDISSNGEDWISLKEGNKAIIFQGNTNPTDVVLGVFSKPLITRFVRIKPVSWETGISMRFEVYGCKITDYPCSGMLGMVSGLISDSQITASNQADRNWMPENIRLVTSRTGWALPPSPHPYTNEWLQVDLGDEKIVRGVIIQGGKHRENKVFMRKFKIAYSNNGSDWKTIMDDSKRKAKSFEGNNNYDTPELRTFSPLSTRFIRIYPERATHSGLGLRMELLGCEVEAPTAGPTTPNGNPVDECDDDQANCHSGTGDDFQLTGGTTVLATEKPTIIDSTIQSEFPTYGFNCEFGWGSHKTFCHWEHDSHAQLRWSVLTSKTGPIQDHTGDGNFIYSQADENQKGKVARLVSPVVYSQSSAHCMTFWYHMSGSHVGTLRVKLRYQKPEEYDQLVWMVVGHQGDHWKEGRVLLHKSLKLYQVIFEGEIGKGNLGGIAVDDISINNHISQEDCAKPTDLDKKNTEIKIDETGSTPGYEGEGEGDKNISRKPGNVLKTLDPILITIIAMSALGVLLGAVCGVVLYCACWHNGMSERNLSALENYNFELVDGVKLKKDKLNPQSNYSEA
4 | binds | – | Scamp1 (protein, UniProt Q8K021 1-338) MSDFDSNPFADPDLNNPFKDPSVTQVTRNVPPGLDEYNPFSDSRTPPPGSVKMPNVPNTQPAIMKPTEEHPAYTQITKEHALAQAELLKRQEELERKAAELDRREREMQNLSQHGRKNNWPPLPSNFPVGPCFYQDFSVDIPVEFQKTVKLMYYLWMFHAVTLFLNIFGCLAWFCVDSSRAVDFGLSILWFLLFTPCSFVCWYRPLYGAFRSDSSFRFFVFFFVYICQFAVHVLQAAGFHNWGNCGWISSLTGLNKNIPVGIMMIIIAALFTASAVISLVMFKKVHGLYRTTGASFEKAQQEFATGVMSNKTVQTAAANAASTAATSAAQNAFKGNQM
5 | binds | – | Rab11Fip5 (protein, UniProt Q8R361 1-645) MALVRDPEPAAGSSRWLPTHVQVTVLRASGLRGKSSGAGSTSDAYTVIQVGREKYSTSVVEKTQGCPEWCEECSFELPPGALDGLLRAQEADAGPAPWASGPNAACELVLTTMHRSLIGVDKFLGRATVALDEVFRAGRAQHTQWYRLHSKPGKKEKERGEIQVTIQFTRNNLSASMFDLSMKDKPRSPFSKLKDRVKGKKKYDLESASAILPSSALEDPELGSLGKMGKAKGFFLRNKLRKSSLTQSNTSLGSDSTLSSTSGSLVYQGPGAELLTRSPSHSSWLSTEGGRDSIQSPKLLTHKRTYSDEASQLRAAPPRALLELQGHLDGASRSSLCVNGSHVYNEEPQPPLRHRSSISGPFPPSSSLHSVPPRSSEEGSRSSDDSWGRGSHGTSSSEAVPGQEELSKQAKGASCSGEEEGARLPEGKPVQVATPMVASSEAVAAEKDRKPRMGLFHHHHHQGLSRSEQGRRGSVGEKGSPSLGASPHHSSTGEEKAKSSWFGLRESKEPTQKPSPHPVKPLTAAPVEASPDRKQPRTSLSTALSSGLERLKTVTSGGIQSVLPASQLGSSVDTKRPKDSAVLDQSAKYYHLTHDELIGLLLQRERELSQRDEHVQELESYIDRLLVRIMETSPTLLQISPGPPK
